“Also recorded” adds a separate entry of the source.
Tested on: SAD transgenic mice
Assay: Vaso-occlusive crises in mice: renal artery blood flow velocity by Echo-Doppler, cardiac output, renal histology
Type: in vivo
Settings: after intravenous injection (TSP1 1 mg/kg; MP 300.10^3 MP/mouse)
Description: We characterized the induction of VOC in SAD transgenic mice (18, 19) according to our previously published method, in response to the intravenous administration of TSP1 (1 mg/kg), TSP1-derived peptides 4N1-1 or 4N1-2, or purified erythrocyte MP. Briefly, mice were anesthetized with isoflurane and monitored to prevent any cardiorespiratory depression. Mice were shaved and placed in the decubitus position on a heating blanket (38° C.). We used a Vivid 7 echograph (GE Medical Systems®, Horten, Norway) equipped with a 12-MHz linear transducer (12 L). The ultrasound probe was placed on the left side of the abdomen for examination of renal arteries, or in left lateral decubitus for cardiac output acquisition with transducer on the chest. Data were transferred on-line to an EchoPAC ultrasound image analysis workstation (GE Medical Systems®). […] A pulsed Doppler spectrum was recorded and peak systolic, end-diastolic and time-average mean BFV were measured in the renal artery, with Doppler beam angle correction. To calculate cardiac output, spatial flow profiles were analyzed in parasternal long-axis B-mode images of the pulmonary artery and BFV were measured as above. […] Circulating MP were quantified by FACS.
We evaluated the concept that TSP1 influences VOC during SCD in vivo. […]

For “TSP1: Human recombinant TSP1 produced by EMP-Genetech (Germany)”, the “cardiac output or heart rate” value was “No changes; also recorded: no impact”.

From patent publication US10139420B2, “Methods for treating vaso-occlusive crisis using non-modified annexin V” (ISNERM (Institut National de la Sante et de la Recherche …, priority 2011, dated 2018)
